According to patent publication US9439898B2, “Methods for novel drug discovery, treatment and selective targeting for gefitinib-resistant non-small-cell lung cancer harboring T790M mutation” (Macau University of Science and Technology, priority 2014, dated 2016):
At least one compound was matched to its structure with a doubt left.

Columns and labels:
Type in all cases: cell-based
[1] = system: NOX 3; test: RNA and protein expression of NOX 3 in H1975 cells; details: treated vs untreated
[2] = system: EGFR construct having double mutation (L858R and T790M) in HEK293 cells; test: Western blot of total EGFR in HEK293 cells transfected with EGFR L858R+T790M double mutation; details: 3 μM sanguinarine
Protocol: HEK293 cells are used in this example as cell model to be transfected with different constructs of EGFR (wild-type, L858R mutation, Exon 19 deletion, L858R+T790M double mutation). In FIG. 3A, 3 μM saguinarine is added into the HEK293 transfected with different EGFR constructs.

[3] = system: EGFR (wild-type, L858R mutation, Exon 19 deletion) in HEK293 cells; test: Western blot of total EGFR in HEK293 cells transfected with other EGFR constructs; details: HEK293, rest of the samples (untransfected, wild-type, L858R, Exon 19 deletion), 3 μM sanguinarine
[4] = system: total EGFR, EGFR (pY845) and EGFR (pY1068) in A594 cells; test: Western blot of EGFR markers in A594 cells; details: sanguinarine
Description: (§1) FIG. 2A is a control. Among the four cell lines, only H1975 cells have additional T790M mutation on EGFR. […] Compared with sanguinarine, effect of H2O2 on suppression of these markers in H1975 cells is relatively less significant. […] The EGFR degradation is also specific in NSCLC cells having T790M mutation by using sanguinarine or H2O2.

[5] = system: total EGFR, EGFR (pY845) and EGFR (pY1068) in H1975 cells; test: Western blot of EGFR markers in H1975 cells; details: 1.25 μM sanguinarine
Description: as §1

[6] = system: H1975 cells; test: ROS generation in H1975 cells by flow cytometry; details: 1.25 μM sanguinarine

**Q.** What does the source list for C[n+]1cc2c3c(ccc2c2ccc4cc5c(cc4c21)OCO5)OCO3 [sanguinarine]?
**A.** expression of NOX 3 in RNA and protein level [1]: increases the expression of NOX 3; total EGFR level [2]: significant reduction; total EGFR level [3]: do not show any significant reduction; expression level of all markers (total EGFR, pY845 EGFR, pY1068 EGFR) [4]: no significant reduction; expression level of total EGFR, pY845 EGFR and pY1068 EGFR [5]: all reduced; ROS generation ([6]; from 4 hours to 6 hours, FIG. 1B): increased more significantly; ROS generation ([6]; time course, FIG. 1A): induced by sanguinarine starting at 30 minutes of incubation
